# Measured values from paper PMC8384837.
# Numbering of substitutions follows the chain as printed. This is one part of the list. For part of these data: At the low end of the ranking the order means little.
# What was measured:
# Conditions in all cases: yeast three-hybrid, YBZ-1, SC-Leu-His + 0.5 mM 3-AT, 4 days
# [1] = target: T1, PUM1 PUF domain R3-KPG C935K + R936P + Q939G (UniProt Q14671)
# T1 sequence: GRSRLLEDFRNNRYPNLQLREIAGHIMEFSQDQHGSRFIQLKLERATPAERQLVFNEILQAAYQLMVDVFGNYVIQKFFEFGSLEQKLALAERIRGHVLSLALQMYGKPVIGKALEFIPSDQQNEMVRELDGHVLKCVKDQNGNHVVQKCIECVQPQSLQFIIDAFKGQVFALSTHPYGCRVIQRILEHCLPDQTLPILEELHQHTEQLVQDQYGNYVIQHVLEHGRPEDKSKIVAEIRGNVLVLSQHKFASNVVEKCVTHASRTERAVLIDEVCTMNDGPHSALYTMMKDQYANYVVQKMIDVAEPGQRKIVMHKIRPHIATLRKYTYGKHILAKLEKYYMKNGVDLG
# [2] = target: T2, PUM1 PUF domain R3-KSD C935K + R936S + Q939D (UniProt Q14671)
# T2 sequence: T1 sequence with P109S, G112D
# [3] = target: T3, PUM1 PUF domain R3-KSG C935K + R936S + Q939G (UniProt Q14671)
# T3 sequence: T1 sequence with P109S
# [4] = target: T4, PUM1 PUF domain R3-KSS C935K + R936S + Q939S (UniProt Q14671)
# T4 sequence: T1 sequence with P109S, G112S
# [5] = target: T5, PUM1 PUF domain R3-LFG C935L + R936F + Q939G (Homo sapiens) (UniProt Q14671)
# T5 sequence: T1 sequence with K108L, P109F
# [6] = target: T6, PUM1 PUF domain R3-LFL C935L + R936F + Q939L (UniProt Q14671)
# T6 sequence: T1 sequence with K108L, P109F, G112L
# [7] = target: T7, PUM1 PUF domain R3-LFT C935L + R936F + Q939T (Homo sapiens) (UniProt Q14671)
# T7 sequence: T1 sequence with K108L, P109F, G112T
# [8] = target: T8, PUM1 PUF domain R3-LNG C935L + R936N + Q939G (UniProt Q14671)
# T8 sequence: T1 sequence with K108L, P109N
# [9] = target: T9, PUM1 PUF domain R3-LNS C935L + R936N + Q939S (UniProt Q14671)
# T9 sequence: T1 sequence with K108L, P109N, G112S
# [10] = target: T10, PUM1 PUF domain R3-LRA C935L + Q939A (UniProt Q14671)
# T10 sequence: T1 sequence with K108L, P109R, G112A
# [11] = target: T11, PUM1 PUF domain R3-LRC C935L + Q939C (UniProt Q14671)
# T11 sequence: T1 sequence with K108L, P109R, G112C
# [12] = target: T12, PUM1 PUF domain R3-LRE C935L + Q939E (UniProt Q14671)
# T12 sequence: T1 sequence with K108L, P109R, G112E
# [13] = target: T13, PUM1 PUF domain R3-LRG C935L + Q939G (Homo sapiens) (UniProt Q14671)
# T13 sequence: T1 sequence with K108L, P109R
# [14] = target: T14, PUM1 PUF domain R3-LRR C935L + Q939R (UniProt Q14671)
# T14 sequence: T1 sequence with K108L, P109R, G112R
# [15] = target: T15, PUM1 PUF domain R3-LRS C935L + Q939S (UniProt Q14671)
# T15 sequence: T1 sequence with K108L, P109R, G112S
# [16] = target: T16, PUM1 PUF domain R3-LRT C935L + Q939T (Homo sapiens) (UniProt Q14671)
# T16 sequence: T1 sequence with K108L, P109R, G112T
# [17] = target: T17, PUM1 PUF domain R3-LRV C935L + Q939V (UniProt Q14671)
# T17 sequence: T1 sequence with K108L, P109R, G112V
# [18] = target: T18, PUM1 PUF domain R3-LSA C935L + R936S + Q939A (UniProt Q14671)
# T18 sequence: T1 sequence with K108L, P109S, G112A
# [19] = target: T19, PUM1 PUF domain R3-LSC C935L + R936S + Q939C (UniProt Q14671)
# T19 sequence: T1 sequence with K108L, P109S, G112C
# [20] = target: T20, PUM1 PUF domain R3-LSE C935L + R936S + Q939E (UniProt Q14671)
# T20 sequence: T1 sequence with K108L, P109S, G112E
# [21] = target: T21, PUM1 PUF domain R3-LSG C935L + R936S + Q939G (UniProt Q14671)
# T21 sequence: T1 sequence with K108L, P109S
# [22] = target: T22, PUM1 PUF domain R3-LSR C935L + R936S + Q939R (Homo sapiens) (UniProt Q14671)
# T22 sequence: T1 sequence with K108L, P109S, G112R
# [23] = target: T23, PUM1 PUF domain R3-LSS C935L + R936S + Q939S (UniProt Q14671)
# T23 sequence: T1 sequence with K108L, P109S, G112S
# [24] = target: T24, PUM1 PUF domain R3-LSV C935L + R936S + Q939V (UniProt Q14671)
# T24 sequence: T1 sequence with K108L, P109S, G112V
# [25] = target: T25, PUM1 PUF domain R3-LWA C935L + R936W + Q939A (UniProt Q14671)
# T25 sequence: T1 sequence with K108L, P109W, G112A
# [26] = target: T26, PUM1 PUF domain R3-LWE C935L + R936W + Q939E (UniProt Q14671)
# T26 sequence: T1 sequence with K108L, P109W, G112E
# [27] = target: T27, PUM1 PUF domain R3-LWG C935L + R936W + Q939G (Homo sapiens) (UniProt Q14671)
# T27 sequence: T1 sequence with K108L, P109W
# [28] = target: T28, PUM1 PUF domain R3-LWI C935L + R936W + Q939I (UniProt Q14671)
# T28 sequence: T1 sequence with K108L, P109W, G112I
# [29] = target: T29, PUM1 PUF domain R3-LWL C935L + R936W + Q939L (UniProt Q14671)
# T29 sequence: T1 sequence with K108L, P109W, G112L
# [30] = target: T30, PUM1 PUF domain R3-LWN C935L + R936W + Q939N (UniProt Q14671)
# T30 sequence: T1 sequence with K108L, P109W, G112N
# [31] = target: T31, PUM1 PUF domain R3-LWR C935L + R936W + Q939R (Homo sapiens) (UniProt Q14671)
# T31 sequence: T1 sequence with K108L, P109W, G112R
# [32] = target: T32, PUM1 PUF domain R3-LWT C935L + R936W + Q939T (UniProt Q14671)
# T32 sequence: T1 sequence with K108L, P109W, G112T
# [33] = target: T33, PUM1 PUF domain R3-LYE C935L + R936Y + Q939E (Homo sapiens) (UniProt Q14671)
# T33 sequence: T1 sequence with K108L, P109Y, G112E
# [34] = target: T34, PUM1 PUF domain R3-LYG C935L + R936Y + Q939G (UniProt Q14671)
# T34 sequence: T1 sequence with K108L, P109Y
# [35] = target: T35, PUM1 PUF domain R3-LYM C935L + R936Y + Q939M (UniProt Q14671)
# T35 sequence: T1 sequence with K108L, P109Y, G112M
# [36] = target: T36, PUM1 PUF domain R3-LYR C935L + R936Y + Q939R (Homo sapiens) (UniProt Q14671)
# T36 sequence: T1 sequence with K108L, P109Y, G112R
sequence,measurement,setting,value
GGCUAGAACUAGUGGAUCCCCCGGCGCCCGGCGGCUCGAGCCCGGGUAAGUGUAACUAGUCUGCAUGCCGCCGGGCGCCAUGCCUGCAGGUCGACUCUAGAAAACAUG,binding signal (log2 enrichment (interaction score)),[1],< -7.81
same,binding signal (log2 enrichment (interaction score)),[2],< -6.4
same,binding signal (log2 enrichment (interaction score)),[3],-4.91
same,binding signal (log2 enrichment (interaction score)),[4],< -8.01
same,binding signal (log2 enrichment (interaction score)),[5],-2.98
same,binding signal (log2 enrichment (interaction score)),[6],-4.94
same,binding signal (log2 enrichment (interaction score)),[7],-3.27
same,binding signal (log2 enrichment (interaction score)),[8],< -8.26
same,binding signal (log2 enrichment (interaction score)),[9],< -8.09
same,binding signal (log2 enrichment (interaction score)),[10],-4.38
same,binding signal (log2 enrichment (interaction score)),[11],-4.79
same,binding signal (log2 enrichment (interaction score)),[12],< -9.8
same,binding signal (log2 enrichment (interaction score)),[13],-3.49
same,binding signal (log2 enrichment (interaction score)),[14],-3.98
same,binding signal (log2 enrichment (interaction score)),[15],< -9.32
same,binding signal (log2 enrichment (interaction score)),[16],-1.51
same,binding signal (log2 enrichment (interaction score)),[17],-3.82
same,binding signal (log2 enrichment (interaction score)),[18],< -9.69
same,binding signal (log2 enrichment (interaction score)),[19],< -7.34
same,binding signal (log2 enrichment (interaction score)),[20],< -8.38
same,binding signal (log2 enrichment (interaction score)),[21],-6.25
same,binding signal (log2 enrichment (interaction score)),[22],-2.83
same,binding signal (log2 enrichment (interaction score)),[23],-8.09
same,binding signal (log2 enrichment (interaction score)),[24],-6.96
same,binding signal (log2 enrichment (interaction score)),[25],-5.96
same,binding signal (log2 enrichment (interaction score)),[26],< -6.4
same,binding signal (log2 enrichment (interaction score)),[27],-0.21
same,binding signal (log2 enrichment (interaction score)),[28],< -7.4
same,binding signal (log2 enrichment (interaction score)),[29],< -9.42
same,binding signal (log2 enrichment (interaction score)),[30],< -6.95
same,binding signal (log2 enrichment (interaction score)),[31],-1.34
same,binding signal (log2 enrichment (interaction score)),[32],< -7.23
same,binding signal (log2 enrichment (interaction score)),[33],-3.34
same,binding signal (log2 enrichment (interaction score)),[34],-3.7
same,binding signal (log2 enrichment (interaction score)),[35],< -8.28
same,binding signal (log2 enrichment (interaction score)),[36],-0.04

# Already shown: an excerpt of the list.
sequence,measurement,setting,value
GGCUAGAACUAGUGGAUCCCCCGGCGCCCGGCGGCUCGAGCCCGGGUAAGUGUAACUAGUCUGCAUGCCGCCGGGCGCCAUGCCUGCAGGUCGACUCUAGAAAACAUG,binding signal (log2 enrichment (interaction score)),[1],< -7.81
same,binding signal (log2 enrichment (interaction score)),[2],< -6.4
